In publication doi:10.1101/2021.05.12.443777:
These are yes or no findings as the source states them, for the method shown. Binding seen in cells or lysates may run through a third protein. Some results given as binding are weak or reduced against the parent protein; the word gives no strength. Sequences can lack the tags named with a protein.

The chains behind the UniProt entries cited, without tags or fusion partners.
UniProt Q02085: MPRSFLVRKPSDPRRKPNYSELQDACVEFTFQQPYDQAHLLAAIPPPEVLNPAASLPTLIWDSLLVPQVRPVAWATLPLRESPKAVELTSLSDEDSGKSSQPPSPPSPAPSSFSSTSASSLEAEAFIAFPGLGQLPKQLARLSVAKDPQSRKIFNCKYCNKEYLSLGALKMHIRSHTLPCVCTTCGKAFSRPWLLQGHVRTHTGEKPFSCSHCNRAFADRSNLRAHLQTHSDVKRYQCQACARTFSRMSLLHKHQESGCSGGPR

T1: V5 tagged ERG (UniProt P81270)
T1 sequence: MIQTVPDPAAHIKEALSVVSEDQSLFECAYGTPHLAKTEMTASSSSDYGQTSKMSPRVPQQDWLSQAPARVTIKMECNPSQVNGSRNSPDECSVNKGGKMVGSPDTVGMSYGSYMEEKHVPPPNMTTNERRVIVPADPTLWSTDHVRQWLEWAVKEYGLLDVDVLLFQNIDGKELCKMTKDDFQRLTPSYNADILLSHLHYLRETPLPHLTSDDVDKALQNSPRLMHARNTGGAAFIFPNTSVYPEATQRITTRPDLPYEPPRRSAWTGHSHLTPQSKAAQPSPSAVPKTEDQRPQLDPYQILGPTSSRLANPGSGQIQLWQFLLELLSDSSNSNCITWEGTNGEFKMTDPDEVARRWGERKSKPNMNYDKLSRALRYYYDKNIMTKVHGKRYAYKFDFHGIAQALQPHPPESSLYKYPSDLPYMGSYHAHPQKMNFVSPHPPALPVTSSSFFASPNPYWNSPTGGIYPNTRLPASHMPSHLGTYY

T2: TWIST1 (UniProt P26687)
T2 sequence: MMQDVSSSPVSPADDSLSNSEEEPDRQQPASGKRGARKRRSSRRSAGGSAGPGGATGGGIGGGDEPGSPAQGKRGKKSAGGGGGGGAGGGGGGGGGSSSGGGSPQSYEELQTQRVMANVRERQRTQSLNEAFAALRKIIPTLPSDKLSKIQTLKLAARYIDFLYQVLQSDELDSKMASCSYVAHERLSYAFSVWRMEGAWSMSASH

B1: V5 tagged ERG (protein, UniProt P81270 1-486)
chain: T1 sequence
B2: TWIST1 (protein, UniProt P26687 1-206)
chain: T2 sequence

Key:
Test in all cases: co-IP
V5 tagged ERG = molecular target: T1, V5 tagged ERG
SNAI1 = SNAI1 (UniProt Q02085)
TWIST1 = molecular target: T2, TWIST1

binding (V5 tagged ERG) | binding (SNAI1) | binding (TWIST1) | Molecule
binds |  |  | SNAI1 (from UniProt Q02085 1-264)
 | binds | binds | B1
binds |  |  | B2
